Measurements reported in PubChem BioAssay AID652259 (Drosophila RNAi Screening Center, 2013).

Purpose: 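Knock-downs that push a Wingless-driven reporter up or down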 (primary screen)
System: Drosophila clone 8 imaginal disc epithelial cells
Knock-down reagent: long dsRNA against Drosophila genes
Treatment: pathway stimulated by co-transfected Wingless expression plasmid
Detection: 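Firefly luciferase from a tcf-site Wingless reporter, measured alongside co-transfected Renilla luciferase that tracks transfection; pathway stimulated by a Wingless plasmid; the firefly-to-Renilla ratio is not deposited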
Direction: firefly reporter light: higher = more Wg reporter light, before normalisation; Renilla control light: higher = more transfected or surviving cells
Call rule: 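a knock-down is a candidate when at least two out of four statistical tests show it departing from its plate mean; one test alone signals a weak candidate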
Meaning of the calls: active = candidate regulator (raises or lowers reporter); inactive = not a candidate
In all, the deposit lists about 22,000 reagents; shown is an unselected part of those with a known target gene and a result. Over the whole deposit, 233 (1.1%) were called active. 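Light values are raw, unnormalised plate reads; the ratio scores behind the reporter calls were not deposited.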 Names joined by + are all predicted targets of the reagent. The record does not give: the amount of reagent, the time to read-out, the dose of the treatment.

gene knocked down | dsRNA | reporter change call, replicate 1 | firefly reporter light, replicate 1 | firefly reporter light, replicate 2 | Renilla control light, replicate 1 | Renilla control light, replicate 2 | activity call
Tsp42Er (GeneID 35629) | DRSC06183 | – | 2561 | 8212 | 803 | 3323 | inactive
CG10324 (GeneID 42028) | DRSC14230 | – | 17185 | – | 3328 | – | inactive
CG33340 (GeneID 2768682) | DRSC14615 | – | 13864 | – | 11393 | – | inactive
SdhC (GeneID 41340) | DRSC16088 | – | 16109 | – | 5579 | – | inactive
Rnf146 (GeneID 40144) | DRSC11045 | Wg reporter activity raised | 32024 | – | 4530 | – | active
dpr2 (GeneID 3346227) | DRSC02370 | – | 2843 | 9474 | 1160 | 4133 | inactive
dpr2 (GeneID 3346227) | DRSC02371 | – | 2026 | 7367 | 970 | 4102 | inactive
CG4198 (GeneID 31445) | DRSC18354 | – | 3349 | 7563 | 660 | 2716 | inactive
CG8306 (GeneID 36857) | DRSC07141 | – | 10040 | – | 3746 | – | inactive
hng3 (GeneID 38090) | DRSC08367 | – | 7321 | – | 3158 | – | inactive
sei (GeneID 37843) | DRSC04713 | – | 6283 | – | 1894 | – | inactive
TORIP (GeneID 40158) | DRSC10104 | – | 4392 | – | 1652 | – | inactive
osp (GeneID 34850) | DRSC01409 | – | 24208 | – | 11922 | – | inactive
osp (GeneID 34850) | DRSC03585 | – | 6050 | – | 1603 | – | inactive
CG17349 (GeneID 35209) | DRSC02610 | – | 1792 | 5877 | 765 | 2173 | inactive
CG14478 (GeneID 36964) | DRSC06450 | – | 4811 | – | 2045 | – | inactive
EndoU (GeneID 41931) | DRSC15472 | – | 2656 | 3362 | 2004 | 928 | inactive
CG11655 (GeneID 32472) | DRSC19413 | – | 15632 | – | 8176 | – | inactive
CanB (GeneID 44317) | DRSC18449 | – | 21603 | – | 12592 | – | inactive
vir-1 (GeneID 34652) | DRSC02501 | – | 1985 | 6960 | 905 | 2368 | inactive
vir-1 (GeneID 34652) | DRSC02863 | – | 1539 | 4150 | 662 | 2072 | inactive
Lim1 (GeneID 31813) | DRSC17752 | – | 3142 | 6096 | 1602 | 2875 | inactive
Lim1 (GeneID 31813) | DRSC18677 | – | 35264 | – | 22500 | – | inactive
Zif (GeneID 40795) | DRSC12514 | – | 3843 | – | 1724 | – | inactive
CG32176 (GeneID 39944) | DRSC10057 | – | 6296 | – | 3122 | – | inactive
CG32176 (GeneID 39944) | DRSC10058 | – | 7947 | – | 2869 | – | inactive
beat-Vb (GeneID 41583) | DRSC12940 | – | 3945 | – | 485 | – | inactive
beat-Vb (GeneID 41583) | DRSC14844 | – | 3156 | – | 1349 | – | inactive
beat-Vb (GeneID 41583) | DRSC14845 | – | 18121 | – | 6056 | – | inactive
Hand (GeneID 34379) | DRSC02656 | – | 2424 | 7079 | 1043 | 4160 | inactive
Opa1 (GeneID 36578) | DRSC07191 | – | 13616 | – | 2289 | – | inactive
CG32110 (GeneID 317858) | DRSC09220 | – | 2486 | – | 1322 | – | inactive
CG8534 (GeneID 41210) | DRSC16439 | – | 22240 | – | 5720 | – | inactive
Ass + CG31286 | DRSC12493 | – | 10363 | – | 2776 | – | inactive
robo1 (GeneID 37603) | DRSC04712 | – | 3349 | 6544 | 800 | 2764 | inactive
Snx3 (GeneID 41551) | DRSC16027 | – | 16913 | – | 4986 | – | inactive
Targ (GeneID 36630) | DRSC06206 | – | 5689 | – | 2483 | – | inactive
CG17211 (GeneID 34639) | DRSC02587 | – | 2937 | 8924 | 1170 | 3010 | inactive
CG5989 (GeneID 38984) | DRSC10565 | – | 4704 | – | 1637 | – | inactive
CG31515 (GeneID 326147) | DRSC13610 | – | 3783 | – | 603 | – | inactive
CG33775 (GeneID 3772054) | DRSC05353 | – | 17441 | – | 12762 | – | inactive
CG13070 (GeneID 39782) | DRSC09953 | – | 5605 | – | 2933 | – | inactive
st (GeneID 39836) | DRSC11399 | – | 4168 | – | 1250 | – | inactive
VhaPPA1-1 (GeneID 45247) | DRSC16170 | – | 7450 | – | 2694 | – | inactive
cGlr2 (GeneID 246606) | DRSC04017 | – | 21568 | – | 9224 | – | inactive
CG32212 + hpRNA:CR33940 | DRSC09618 | – | 2808 | – | 1681 | – | inactive
alpha-Est4 (GeneID 40906) | DRSC12616 | – | 11808 | – | 3857 | – | inactive
kuk (GeneID 42063) | DRSC15730 | – | 4071 | 8151 | 1426 | 2358 | inactive
ms(3)76Cc (GeneID 40142) | DRSC11071 | – | 21948 | – | 7249 | – | inactive
ms(3)76Cc (GeneID 40142) | DRSC21630 | – | 3.92e5 | 4.45e5 | 1.62e5 | 1.61e5 | inactive
Nup50 (GeneID 35784) | DRSC06827 | – | 6634 | – | 1446 | – | inactive
CG11586 (GeneID 38520) | DRSC08203 | – | 10162 | 8.00e5 | 4080 | 4.02e5 | inactive
Vha26 (GeneID 40679) | DRSC12371 | – | 8037 | – | 2784 | – | inactive
KaiR1D (GeneID 42473) | DRSC15516 | – | 11704 | – | 2549 | – | inactive
CG30056 (GeneID 246422) | DRSC21752 | – | 3.12e5 | 3.42e5 | 63470 | 53689 | inactive
CG32147 (GeneID 251690) | DRSC09346 | – | 2641 | – | 1063 | – | inactive
Tbcb (GeneID 37244) | DRSC06067 | – | 13142 | – | 5404 | – | inactive
CROT (GeneID 43332) | DRSC14518 | – | 2278 | 2338 | 1062 | 1040 | inactive
CROT (GeneID 43332) | DRSC14519 | – | 6901 | – | 2375 | – | inactive
CG12056 (GeneID 31855) | DRSC17796 | – | 1515 | 6364 | 612 | 1947 | inactive
Cyp4p1 (GeneID 45524) | DRSC07372 | – | 4170 | 10773 | 1020 | 4045 | inactive
CG8298 (GeneID 36282) | DRSC07138 | – | 9229 | – | 2747 | – | inactive
TAF1B (GeneID 41242) | DRSC16001 | – | 5244 | – | 2202 | – | inactive
Pih1D1 (GeneID 34685) | DRSC02897 | – | 14916 | – | 5469 | – | inactive
CG12688 (retired record) (GeneID 31378) | DRSC17877 | – | 17867 | – | 7812 | – | inactive
CG12688 (retired record) (GeneID 31378) | DRSC17878 | – | 22283 | – | 7543 | – | inactive
CG8067 (GeneID 36552) | DRSC07065 | – | 11640 | – | 2979 | – | inactive
CG3021 (GeneID 53546) | DRSC18165 | – | 18364 | – | 10465 | – | inactive
CG3021 (GeneID 53546) | DRSC18652 | – | 22864 | – | 15677 | – | inactive
CG5886 (GeneID 43125) | DRSC15908 | – | 2291 | 5923 | 976 | 2052 | inactive
CG11381 (GeneID 31067) | DRSC17780 | – | 14933 | – | 5554 | – | inactive
CG31922 (GeneID 319028) | DRSC21703 | – | 8.67e5 | 8.36e5 | 4.74e5 | 3.81e5 | inactive
CG3223 (GeneID 40947) | DRSC15468 | – | 13880 | – | 3389 | – | inactive

Part of the list above, set out differently.
{"gene knocked down":"CG11655 (GeneID 32472)","dsRNA":"DRSC19413","firefly reporter light, replicate 1":15632,"Renilla control light, replicate 1":8176,"activity call":"inactive"}
{"gene knocked down":"CanB (GeneID 44317)","dsRNA":"DRSC18449","firefly reporter light, replicate 1":21603,"Renilla control light, replicate 1":12592,"activity call":"inactive"}
{"gene knocked down":"vir-1 (GeneID 34652)","dsRNA":"DRSC02501","firefly reporter light, replicate 1":1985,"firefly reporter light, replicate 2":6960,"Renilla control light, replicate 1":905,"Renilla control light, replicate 2":2368,"activity call":"inactive"}
{"gene knocked down":"vir-1 (GeneID 34652)","dsRNA":"DRSC02863","firefly reporter light, replicate 1":1539,"firefly reporter light, replicate 2":4150,"Renilla control light, replicate 1":662,"Renilla control light, replicate 2":2072,"activity call":"inactive"}
{"gene knocked down":"Lim1 (GeneID 31813)","dsRNA":"DRSC17752","firefly reporter light, replicate 1":3142,"firefly reporter light, replicate 2":6096,"Renilla control light, replicate 1":1602,"Renilla control light, replicate 2":2875,"activity call":"inactive"}
{"gene knocked down":"Lim1 (GeneID 31813)","dsRNA":"DRSC18677","firefly reporter light, replicate 1":35264,"Renilla control light, replicate 1":22500,"activity call":"inactive"}
{"gene knocked down":"Zif (GeneID 40795)","dsRNA":"DRSC12514","firefly reporter light, replicate 1":3843,"Renilla control light, replicate 1":1724,"activity call":"inactive"}
{"gene knocked down":"CG32176 (GeneID 39944)","dsRNA":"DRSC10057","firefly reporter light, replicate 1":6296,"Renilla control light, replicate 1":3122,"activity call":"inactive"}
{"gene knocked down":"CG32176 (GeneID 39944)","dsRNA":"DRSC10058","firefly reporter light, replicate 1":7947,"Renilla control light, replicate 1":2869,"activity call":"inactive"}
{"gene knocked down":"beat-Vb (GeneID 41583)","dsRNA":"DRSC12940","firefly reporter light, replicate 1":3945,"Renilla control light, replicate 1":485,"activity call":"inactive"}
{"gene knocked down":"beat-Vb (GeneID 41583)","dsRNA":"DRSC14844","firefly reporter light, replicate 1":3156,"Renilla control light, replicate 1":1349,"activity call":"inactive"}
{"gene knocked down":"beat-Vb (GeneID 41583)","dsRNA":"DRSC14845","firefly reporter light, replicate 1":18121,"Renilla control light, replicate 1":6056,"activity call":"inactive"}
